Read-outs that look alike come from different tables or passages of the source. Results are given in words; binding and its absence hold for the method and conditions named. Binding seen in cells or lysates may run through a third protein. A yes stands for co-enrichment or nearness to the bait. Other partners may have been found. For some of these results: A no says only that the protein was not detected with the bait. For some of these results: Tags and fused reporters may be left off the sequences shown.
T1: FLAG-ADNP (bait of the PD-MS) (UniProt Q9H2P0)
T1 sequence: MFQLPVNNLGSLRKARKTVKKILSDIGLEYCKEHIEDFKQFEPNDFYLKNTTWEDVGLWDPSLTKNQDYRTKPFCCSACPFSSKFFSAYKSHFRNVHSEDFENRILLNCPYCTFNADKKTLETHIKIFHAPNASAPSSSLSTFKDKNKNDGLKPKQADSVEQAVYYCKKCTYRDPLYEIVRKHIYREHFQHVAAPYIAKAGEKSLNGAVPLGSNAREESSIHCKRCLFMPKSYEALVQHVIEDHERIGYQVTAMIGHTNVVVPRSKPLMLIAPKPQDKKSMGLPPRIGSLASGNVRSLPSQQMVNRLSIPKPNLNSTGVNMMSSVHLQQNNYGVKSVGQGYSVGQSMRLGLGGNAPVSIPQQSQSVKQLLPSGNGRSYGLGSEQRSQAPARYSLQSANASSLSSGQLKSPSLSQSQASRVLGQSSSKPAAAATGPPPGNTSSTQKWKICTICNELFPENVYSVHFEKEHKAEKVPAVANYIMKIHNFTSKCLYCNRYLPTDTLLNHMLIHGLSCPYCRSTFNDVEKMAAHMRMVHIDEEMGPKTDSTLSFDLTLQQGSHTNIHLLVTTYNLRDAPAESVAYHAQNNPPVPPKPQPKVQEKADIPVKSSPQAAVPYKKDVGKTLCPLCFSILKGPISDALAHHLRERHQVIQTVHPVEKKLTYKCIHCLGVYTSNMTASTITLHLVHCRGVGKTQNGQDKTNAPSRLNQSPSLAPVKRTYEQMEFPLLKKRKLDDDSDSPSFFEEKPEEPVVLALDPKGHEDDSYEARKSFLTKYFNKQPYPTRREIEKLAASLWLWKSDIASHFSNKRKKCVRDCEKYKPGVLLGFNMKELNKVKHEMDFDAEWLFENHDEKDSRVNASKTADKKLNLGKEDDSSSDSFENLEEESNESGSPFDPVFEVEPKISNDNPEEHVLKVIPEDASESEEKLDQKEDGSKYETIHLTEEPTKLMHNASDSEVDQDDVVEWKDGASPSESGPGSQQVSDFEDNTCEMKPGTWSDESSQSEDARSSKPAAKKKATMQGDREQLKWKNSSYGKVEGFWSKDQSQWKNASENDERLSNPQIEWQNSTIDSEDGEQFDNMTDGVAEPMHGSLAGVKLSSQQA

T2: FLAG-CDK2AP1 (UniProt O14519)
T2 sequence: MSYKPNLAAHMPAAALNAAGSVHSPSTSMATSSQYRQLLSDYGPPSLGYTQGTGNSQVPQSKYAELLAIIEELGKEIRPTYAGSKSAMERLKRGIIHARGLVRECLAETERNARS

T3: FLAG-MBD3, O95983
T3 chain: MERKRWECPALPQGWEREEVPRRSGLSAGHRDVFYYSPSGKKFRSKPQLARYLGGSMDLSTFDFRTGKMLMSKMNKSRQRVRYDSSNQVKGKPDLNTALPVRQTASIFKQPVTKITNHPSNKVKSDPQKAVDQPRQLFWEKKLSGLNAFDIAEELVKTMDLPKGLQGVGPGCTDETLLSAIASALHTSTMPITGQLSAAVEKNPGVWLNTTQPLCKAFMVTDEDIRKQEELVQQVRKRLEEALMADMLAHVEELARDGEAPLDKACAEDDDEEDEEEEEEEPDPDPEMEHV


What was measured:
Assay in all cases: affinity purification with mass spectrometry
[1] = target: T1, FLAG-ADNP (bait of the PD-MS)
[2] = target: T2, FLAG-CDK2AP1
[3] = target: T2, FLAG-CDK2AP1; remark: listed apart in the source
[4] = target: FLAG-MBD2a, Q9UBB5; details: remark: other sources report otherwise
[5] = target: T3, FLAG-MBD3, O95983; details: remark: other sources report otherwise

| Binder | binding [1] | binding [4] | also measured |
| --- | --- | --- | --- |
| QKI (protein, UniProt Q96PU8 1-341) MVGEMETKEKPKPTPDYLMQLMNDKKLMSSLPNFCGIFNHLERLLDEEISRVRKDMYNDTLNGSTEKRSAELPDAVGPIVQLQEKLYVPVKEYPDFNFVGRILGPRGLTAKQLEAETGCKIMVRGKGSMRDKKKEEQNRGKPNWEHLNEDLHVLITVEDAQNRAEIKLKRAVEEVKKLLVPAAEGEDSLKKMQLMELAILNGTYRDANIKSPALAFSLAATAQAAPRIITGPAPVLPPAALRTPTPAGPTIMPLIRQIQTAVMPNGTPHPTAAIVPPGPEAGLIYTPYEYPYTLAPATSILEYPIEPSGVLGAVATKVRRHDMRVHPYQRIVTADRAATGN |  |  | binding [2]: binds; binding [3]: binds |
| ZNF219, Q9P2Y4 1-722 (protein) MEGSRPRAPSGHLAPSPPAFDGELDLQRYSNGPAVSAGSLGMGAVSWSESRAGERRFPCPVCGKRFRFNSILALHLRAHPGAQAFQCPHCGHRAAQRALLRSHLRTHQPERPRSPAARLLLELEERALLREARLGRARSSGGMQATPATEGLARPQAPSSSAFRCPYCKGKFRTSAERERHLHILHRPWKCGLCSFGSSQEEELLHHSLTAHGAPERPLAATSAAPPPQPQPQPPPQPEPRSVPQPEPEPEPEREATPTPAPAAPEEPPAPPEFRCQVCGQSFTQSWFLKGHMRKHKASFDHACPVCGRCFKEPWFLKNHMKVHASKLGPLRAPGPASGPARAPQPPDLGLLAYEPLGPALLLAPAPTPAERREPPSLLGYLSLRAGEGRPNGEGAEPGPGRSFGGFRPLSSALPARARRHRAEEPEEEEEVVEAEEETWARGRSLGSLASLHPRPGEGPGHSASAAGAQARSTATQEENGLLVGGTRPEGGRGATGKDCPFCGKSFRSAHHLKVHLRVHTGERPYKCPHCDYAGTQSGSLKYHLQRHHREQRSGAGPGPPPEPPPPSQRGSAPQSGAKPSPQPATWVEGASSPRPPSSGAGPGSRRKPASPGRTLRNGRGGEAEPLDLSLRAGPGGEAGPGGALHRCLFCPFATGAPELMALHLQVHHSRRARGRRPPQADASPPYARVPSGETPPSPSQEGEEGSGLSRPGEAGLGGQER |  | no binding |  |
| CDK2AP1 (endogenous), O14519 1-115 (protein) MSYKPNLAAHMPAAALNAAGSVHSPSTSMATSSQYRQLLSDYGPPSLGYTQGTGNSQVPQSKYAELLAIIEELGKEIRPTYAGSKSAMERLKRGIIHARGLVRECLAETERNARS |  | no binding | binding [5]: no binding |

More lines, main results first:

| binding [1] | binding [4] | Binder | also measured |
| --- | --- | --- | --- |
| binds |  | ZMYM3 (protein, UniProt Q14202 1-1370) MDPSDFPSPFDPLTLPEKPLAGDLPVDMEFGEDLLESQTAPTRGWAPPGPSPSSGALDLLDTPAGLEKDPGVLDGATELLGLGGLLYKAPSPPEVDHGPEGTLAWDAGDQTLEPGPGGQTPEVVPPDPGAGANSCSPEGLLEPLAPDSPITLQSPHIEEEETTSIATARRGSPGQEEELPQGQPQSPNAPPSPSVGETLGDGINSSQTKPGGSSPPAHPSLPGDGLTAKASEKPPERKRSERVRRAEPPKPEVVDSTESIPVSDEDSDAMVDDPNDEDFVPFRPRRSPRMSLRSSVSQRAGRSAVGTKMTCAHCRTPLQKGQTAYQRKGLPQLFCSSSCLTTFSKKPSGKKTCTFCKKEIWNTKDSVVAQTGSGGSFHEFCTSVCLSLYEAQQQRPIPQSGDPADATRCSICQKTGEVLHEVSNGSVVHRLCSDSCFSKFRANKGLKTNCCDQCGAYIYTKTGSPGPELLFHEGQQKRFCNTTCLGAYKKKNTRVYPCVWCKTLCKNFEMLSHVDRNGKTSLFCSLCCTTSYKVKQAGLTGPPRPCSFCRRSLSDPCYYNKVDRTVYQFCSPSCWTKFQRTSPEGGIHLSCHYCHSLFSGKPEVLDWQDQVFQFCCRDCCEDFKRLRGVVSQCEHCRQEKLLHEKLRFSGVEKSFCSEGCVLLYKQDFTKKLGLCCITCTYCSQTCQRGVTEQLDGSTWDFCSEDCKSKYLLWYCKAARCHACKRQGKLLETIHWRGQIRHFCNQQCLLRFYSQQNQPNLDTQSGPESLLNSQSPESKPQTPSQTKVENSNTVRTPEENGNLGKIPVKTRSAPTAPTPPPPPPPATPRKNKAAMCKPLMQNRGVSCKVEMKSKGSQTEEWKPQVIVLPIPVPIFVPVPMHLYCQKVPVPFSMPIPVPVPMFLPTTLESTDKIVETIEELKVKIPSNPLEADILAMAEMIAEAEELDKASSDLCDLVSNQSAEGLLEDCDLFGPARDDVLAMAVKMANVLDEPGQDLEADFPKNPLDINPSVDFLFDCGLVGPEDVSTEQDLPRTMRKGQKRLVLSESCSRDSMSSQPSCTGLNYSYGVNAWKCWVQSKYANGETSKGDELRFGPKPMRIKEDILACSAAELNYGLAQFVREITRPNGERYEPDSIYYLCLGIQQYLLENNRMVNIFTDLYYLTFVQELNKSLSTWQPTLLPNNTVFSRVEEEHLWECKQLGVYSPFVLLNTLMFFNTKFFGLQTAEEHMQLSFTNVVRQSRKCTTPRGTTKVVSIRYYAPVRQRKGRDTGPGKRKREDEAPILEQRENRMNPLRCPVKFYEFYLSKCPESLRTRNDVFYLQPERSCIAESPLWYSVIPMDRSMLESMLNRILAVREIYEELGRPGEEDLD |  |
| binds |  | ZMYM2 (protein, UniProt Q9UBW7 1-1377) MDTSSVGGLELTDQTPVLLGSTAMATSLTNVGNSFSGPANPLVSRSNKFQNSSVEDDDDVVFIEPVQPPPPSVPVVADQRTITFTSSKNEELQGNDSKITPSSKELASQKGSVSETIVIDDEEDMETNQGQEKNSSNFIERRPPETKNRTNDVDFSTSSFSRSKVNAGMGNSGITTEPDSEIQIANVTTLETGVSSVNDGQLENTDGRDMNLMITHVTSLQNTNLGDVSNGLQSSNFGVNIQTYTPSLTSQTKTGVGPFNPGRMNVAGDVFQNGESATHHNPDSWISQSASFPRNQKQPGVDSLSPVASLPKQIFQPSVQQQPTKPVKVTCANCKKPLQKGQTAYQRKGSAHLFCSTTCLSSFSHKPAPKKLCVMCKKDITTMKGTIVAQVDSSESFQEFCSTSCLSLYEDKQNPTKGALNKSRCTICGKLTEIRHEVSFKNMTHKLCSDHCFNRYRMANGLIMNCCEQCGEYLPSKGAGNNVLVIDGQQKRFCCQSCVSEYKQVGSHPSFLKEVRDHMQDSFLMQPEKYGKLTTCTGCRTQCRFFDMTQCIGPNGYMEPYCSTACMNSHKTKYAKSQSLGIICHFCKRNSLPQYQATMPDGKLYNFCNSSCVAKFQALSMQSSPNGQFVAPSDIQLKCNYCKNSFCSKPEILEWENKVHQFCSKTCSDDYKKLHCIVTYCEYCQEEKTLHETVNFSGVKRPFCSEGCKLLYKQDFARRLGLRCVTCNYCSQLCKKGATKELDGVVRDFCSEDCCKKFQDWYYKAARCDCCKSQGTLKERVQWRGEMKHFCDQHCLLRFYCQQNEPNMTTQKGPENLHYDQGCQTSRTKMTGSAPPPSPTPNKEMKNKAVLCKPLTMTKATYCKPHMQTKSCQTDDTWRTEYVPVPIPVPVYIPVPMHMYSQNIPVPTTVPVPVPVPVFLPAPLDSSEKIPAAIEELKSKVSSDALDTELLTMTDMMSEDEGKTETTNINSVIIETDIIGSDLLKNSDPETQSSMPDVPYEPDLDIEIDFPRAAEELDMENEFLLPPVFGEEYEEQPRPRSKKKGAKRKAVSGYQSHDDSSDNSECSFPFKYTYGVNAWKHWVKTRQLDEDLLVLDELKSSKSVKLKEDLLSHTTAELNYGLAHFVNEIRRPNGENYAPDSIYYLCLGIQEYLCGSNRKDNIFIDPGYQTFEQELNKILRSWQPSILPDGSIFSRVEEDYLWRIKQLGSHSPVALLNTLFYFNTKYFGLKTVEQHLRLSFGTVFRHWKKNPLTMENKACLRYQVSSLCGTDNEDKITTGKRKHEDDEPVFEQIENTANPSRCPVKMFECYLSKSPQNLNQRMDVFYLQPECSSSTDSPVWYTSTSLDRNTLENMLVRVLLVKDIYDKDNYELDEDTD |  |
